For three molecules, binding results are on record in PMC8043893.

By UniProt entry, the sequences of proteins in these tests, tags left out.
UniProt Q9GZV5: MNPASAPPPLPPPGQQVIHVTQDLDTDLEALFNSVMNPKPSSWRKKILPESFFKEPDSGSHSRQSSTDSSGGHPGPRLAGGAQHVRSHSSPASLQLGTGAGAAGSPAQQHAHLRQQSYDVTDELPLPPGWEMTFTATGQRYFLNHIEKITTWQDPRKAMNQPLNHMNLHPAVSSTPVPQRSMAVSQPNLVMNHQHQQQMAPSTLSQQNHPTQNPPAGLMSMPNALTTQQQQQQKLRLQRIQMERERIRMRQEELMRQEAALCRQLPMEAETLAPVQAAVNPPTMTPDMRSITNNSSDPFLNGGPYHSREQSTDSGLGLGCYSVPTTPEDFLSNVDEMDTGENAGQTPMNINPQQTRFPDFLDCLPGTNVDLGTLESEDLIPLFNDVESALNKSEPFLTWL

Results are given in words; binding and its absence hold for the method and conditions named. In cells and extracts the contact can be indirect. A yes stands for co-enrichment or nearness to the bait. Other partners may have been found. For some of these results: A no says only that the protein was not detected with the bait. For some of these results: Where a sequence is shown, tags or fusion partners need not be part of it.

Common to all, as to experiment: proximity labelling; BioID2 fusion bait expressed by adenovirus (MOI 20) in primary human cardiac fibroblasts (P3); 20 uM biotin; lysis; capture on magnetic streptavidin beads; tryptic digestion and MS/MS; SAINTexpress against untreated and empty-BioID2 controls; cut-off fold change >= 3 and SAINT score >= 0.5
The target in assay [1] is T1, MYC-BioID2-SKI fusion protein (human SKI) (human) (UniProt P12755).
T1 sequence: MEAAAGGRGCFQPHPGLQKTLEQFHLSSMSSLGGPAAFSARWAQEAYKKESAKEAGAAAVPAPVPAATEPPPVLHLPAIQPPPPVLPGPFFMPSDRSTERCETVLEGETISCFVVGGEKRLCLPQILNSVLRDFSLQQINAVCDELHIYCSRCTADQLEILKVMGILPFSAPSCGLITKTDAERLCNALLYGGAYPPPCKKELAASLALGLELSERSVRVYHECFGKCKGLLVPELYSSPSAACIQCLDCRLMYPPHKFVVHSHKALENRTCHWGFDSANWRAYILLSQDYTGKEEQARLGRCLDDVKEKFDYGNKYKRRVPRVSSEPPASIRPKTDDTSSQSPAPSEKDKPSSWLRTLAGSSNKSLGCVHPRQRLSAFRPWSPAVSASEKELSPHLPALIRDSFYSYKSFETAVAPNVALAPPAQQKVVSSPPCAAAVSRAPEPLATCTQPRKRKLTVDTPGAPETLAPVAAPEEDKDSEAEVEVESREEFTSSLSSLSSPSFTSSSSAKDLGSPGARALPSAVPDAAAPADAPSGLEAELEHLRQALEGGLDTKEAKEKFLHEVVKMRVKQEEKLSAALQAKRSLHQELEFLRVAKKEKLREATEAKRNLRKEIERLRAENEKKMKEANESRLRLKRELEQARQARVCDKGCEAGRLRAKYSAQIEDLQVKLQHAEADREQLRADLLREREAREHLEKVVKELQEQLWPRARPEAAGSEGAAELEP

Assay [2] has as its target MYC-BioID2-TAZ fusion protein (human TAZ/WWTR1) (human) (UniProt Q9GZV5).
Assay [3] has as its target MYC-BioID2-TAZ fusion protein (human TAZ/WWTR1) (human), Q9GZV5. The conditions noted are these: remark: other sources report otherwise.

B1: Palladin (protein, UniProt Q8WX93 1-1383)
chain: MSGTSSHESFYDSLSDMQEESKNTDFFPGLSAFLSQEEINKSLDLARRAIADSETEDFDSEKEISQIFSTSPASLCEHPSHKETKLGEHASRRPQDNRSTPVQPLAEKQTKSISSPVSKRKPAMSPLLTRPSYIRSLRKAEKRGAKTPSTNVKPKTPHQRKGGPQSQLCDKAANLIEELTSIFKAAKPRNRSPNGESSSPDSGYLSPKNQPSALLSASASQSPMEDQGEMEREVKSPGARHCYQDNQDLAVPHNRKSHPQPHSALHFPAAPRFIQKLRSQEVAEGSRVYLECRVTGNPTPRVRWFCEGKELHNTPDIQIHCEGGDLHTLIIAEAFEDDTGRYTCLATNPSGSDTTSAEVFIEGASSTDSDSESLAFKSRAGAMPQAQKKTTSVSLTIGSSSPKTGVTTAVIQPLSVPVQQVHSPTSYLCRPDGTTTAYFPPVFTKELQNTAVAEGQVVVLECRVRGAPPLQVQWFRQGSEIQDSPDFRILQKKPRSTAEPEEICTLVIAETFPEDAGIFTCSARNDYGSATSTAQLVVTSANTENCSYESMGESNNDHFQHFPPPPPILETSSLELASKKPSEIQQVNNPELGLSRAALQMQFNAAERETNGVHPSRGVNGLINGKANSNKSLPTPAVLLSPTKEPPPLLAKPKLDPLKLQQLQNQIRLEQEAGARQPPPAPRSAPPSPPFPPPPAFPELAACTPPASPEPMSALASRSAPAMQSSGSFNYARPKQFIAAQNLGPASGHGTPASSPSSSSLPSPMSPTPRQFGRAPVPPFAQPFGAEPEAPWGSSSPSPPPPPPPVFSPTAAFPVPDVFPLPPPPPPLPSPGQASHCSSPATRFGHSQTPAAFLSALLPSQPPPAAVNALGLPKGVTPAGFPKKASRTARIASDEEIQGTKDAVIQDLERKLRFKEDLLNNGQPRLTYEERMARRLLGADSATVFNIQEPEEETANQEYKVSSCEQRLISEIEYRLERSPVDESGDEVQYGDVPVENGMAPFFEMKLKHYKIFEGMPVTFTCRVAGNPKPKIYWFKDGKQISPKSDHYTIQRDLDGTCSLHTTASTLDDDGNYTIMAANPQGRISCTGRLMVQAVNQRGRSPRSPSGHPHVRRPRSRSRDSGDENEPIQERFFRPHFLQAPGDLTVQEGKLCRMDCKVSGLPTPDLSWQLDGKPVRPDSAHKMLVRENGVHSLIIEPVTSRDAGIYTCIATNRAGQNSFSLELVVAAKEAHKPPVFIEKLQNTGVADGYPVRLECRVLGVPPPQIFWKKENESLTHSTDRVSMHQDNHGYICLLIQGATKEDAGWYTVSAKNEAGIVSCTARLDVYTQWHQQSQSTKPKKVRPSASRYAALSDQGLDIKAAFQPEANPSHLTLNTALVESEDL
With B1, the binding result in assay [1] and in assay [2] was “binds” throughout.

B2: Large Tumor Suppressor 1, O95835 1-1130 (enzyme)
chain: MKRSEKPEGYRQMRPKTFPASNYTVSSRQMLQEIRESLRNLSKPSDAAKAEHNMSKMSTEDPRQVRNPPKFGTHHKALQEIRNSLLPFANETNSSRSTSEVNPQMLQDLQAAGFDEDMVIQALQKTNNRSIEAAIEFISKMSYQDPRREQMAAAAARPINASMKPGNVQQSVNRKQSWKGSKESLVPQRHGPPLGESVAYHSESPNSQTDVGRPLSGSGISAFVQAHPSNGQRVNPPPPPQVRSVTPPPPPRGQTPPPRGTTPPPPSWEPNSQTKRYSGNMEYVISRISPVPPGAWQEGYPPPPLNTSPMNPPNQGQRGISSVPVGRQPIIMQSSSKFNFPSGRPGMQNGTGQTDFMIHQNVVPAGTVNRQPPPPYPLTAANGQSPSALQTGGSAAPSSYTNGSIPQSMMVPNRNSHNMELYNISVPGLQTNWPQSSSAPAQSSPSSGHEIPTWQPNIPVRSNSFNNPLGNRASHSANSQPSATTVTAITPAPIQQPVKSMRVLKPELQTALAPTHPSWIPQPIQTVQPSPFPEGTASNVTVMPPVAEAPNYQGPPPPYPKHLLHQNPSVPPYESISKPSKEDQPSLPKEDESEKSYENVDSGDKEKKQITTSPITVRKNKKDEERRESRIQSYSPQAFKFFMEQHVENVLKSHQQRLHRKKQLENEMMRVGLSQDAQDQMRKMLCQKESNYIRLKRAKMDKSMFVKIKTLGIGAFGEVCLARKVDTKALYATKTLRKKDVLLRNQVAHVKAERDILAEADNEWVVRLYYSFQDKDNLYFVMDYIPGGDMMSLLIRMGIFPESLARFYIAELTCAVESVHKMGFIHRDIKPDNILIDRDGHIKLTDFGLCTGFRWTHDSKYYQSGDHPRQDSMDFSNEWGDPSSCRCGDRLKPLERRAARQHQRCLAHSLVGTPNYIAPEVLLRTGYTQLCDWWSVGVILFEMLVGQPPFLAQTPLETQMKVINWQTSLHIPPQAKLSPEASDLIIKLCRGPEDRLGKNGADEIKAHPFFKTIDFSSDLRQQSASYIPKITHPTDTSNFDPVDPDKLWSDDNEEENVNDTLNGWYKNGKHPEHAFYEFTFRRFFDDNGYPYNYPKPIEYEYINSQGSEQQSDEDDQNTGSEIKNRDLVYV
As to B2, the binding entry in assay [3] is given as “no binding”.

B3: PJA2 ubiquitin ligase (enzyme, UniProt O43164 1-708)
chain: MSQYTEKEPAAMDQESGKAVWPKPAGGYQTITGRRYGRRHAYVSFKPCMTRHERSLGRAGDDYEVLELDDVPKENSSGSSPLDQVDSSLPSEPIFEKSETEIPTCGSALNQTTESSQSFVAVHHSEEGRDTLGSSTNLHNHSEGEYIPGACSASSVQNGIALVHTDSYDPDGKHGEDNDHLQLSAEVVEGSRYQESLGNTVFELENREAEAYTGLSPPVPSFNCEVRDEFEELDSVPLVKSSAGDTEFVHQNSQEIQRSSQDEMVSTKQQNNTSQERQTEHSPEDAACGPGHICSEQNTNDREKNHGSSPEQVVRPKVRKLISSSQVDQETGFNRHEAKQRSVQRWREALEVEESGSDDLLIKCEEYDGEHDCMFLDPPYSRVITQRETENNQMTSESGATAGRQEVDNTFWNGCGDYYQLYDKDEDSSECSDGEWSASLPHRFSGTEKDQSSSDESWETLPGKDENEPELQSDSSGPEEENQELSLQEGEQTSLEEGEIPWLQYNEVNESSSDEGNEPANEFAQPAFMLDGNNNLEDDSSVSEDLDVDWSLFDGFADGLGVAEAISYVDPQFLTYMALEERLAQAMETALAHLESLAVDVEVANPPASKESIDGLPETLVLEDHTAIGQEQCCPICCSEYIKDDIATELPCHHFFHKPCVSIWLQKSGTCPVCRRHFPPAVIEASAAPSSEPDPDAPPSNDSIAEAP
With B3, the binding result in assay [1] is given as “binds”.
